# Measurements published in the supplement of paper PMC12823440, “Inhibitors supercharge kinase turnover through native proteolytic circuits” (Nature, 2025).
# Protein sequences, listed by entry. Tags and fused reporters are not part of them. Lines headed by an entry give the natural chain unless they say otherwise; changes in a name come on top.
# UniProt O15530: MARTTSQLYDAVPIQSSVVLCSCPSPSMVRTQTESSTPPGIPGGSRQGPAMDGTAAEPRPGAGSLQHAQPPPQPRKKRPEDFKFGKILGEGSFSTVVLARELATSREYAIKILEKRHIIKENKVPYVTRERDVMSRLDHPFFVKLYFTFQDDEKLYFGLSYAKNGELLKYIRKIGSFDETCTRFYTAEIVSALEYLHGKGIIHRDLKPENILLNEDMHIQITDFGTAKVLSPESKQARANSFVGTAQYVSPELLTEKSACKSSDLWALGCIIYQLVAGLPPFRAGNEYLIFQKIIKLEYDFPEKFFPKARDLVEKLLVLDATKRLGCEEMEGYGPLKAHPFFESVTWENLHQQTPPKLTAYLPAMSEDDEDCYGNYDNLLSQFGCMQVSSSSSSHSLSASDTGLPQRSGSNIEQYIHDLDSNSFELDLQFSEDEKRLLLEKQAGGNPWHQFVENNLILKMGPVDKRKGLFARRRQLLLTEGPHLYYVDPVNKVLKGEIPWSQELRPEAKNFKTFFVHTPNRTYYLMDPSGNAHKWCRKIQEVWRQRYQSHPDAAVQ
# UniProt P42356, whole entry, looked up: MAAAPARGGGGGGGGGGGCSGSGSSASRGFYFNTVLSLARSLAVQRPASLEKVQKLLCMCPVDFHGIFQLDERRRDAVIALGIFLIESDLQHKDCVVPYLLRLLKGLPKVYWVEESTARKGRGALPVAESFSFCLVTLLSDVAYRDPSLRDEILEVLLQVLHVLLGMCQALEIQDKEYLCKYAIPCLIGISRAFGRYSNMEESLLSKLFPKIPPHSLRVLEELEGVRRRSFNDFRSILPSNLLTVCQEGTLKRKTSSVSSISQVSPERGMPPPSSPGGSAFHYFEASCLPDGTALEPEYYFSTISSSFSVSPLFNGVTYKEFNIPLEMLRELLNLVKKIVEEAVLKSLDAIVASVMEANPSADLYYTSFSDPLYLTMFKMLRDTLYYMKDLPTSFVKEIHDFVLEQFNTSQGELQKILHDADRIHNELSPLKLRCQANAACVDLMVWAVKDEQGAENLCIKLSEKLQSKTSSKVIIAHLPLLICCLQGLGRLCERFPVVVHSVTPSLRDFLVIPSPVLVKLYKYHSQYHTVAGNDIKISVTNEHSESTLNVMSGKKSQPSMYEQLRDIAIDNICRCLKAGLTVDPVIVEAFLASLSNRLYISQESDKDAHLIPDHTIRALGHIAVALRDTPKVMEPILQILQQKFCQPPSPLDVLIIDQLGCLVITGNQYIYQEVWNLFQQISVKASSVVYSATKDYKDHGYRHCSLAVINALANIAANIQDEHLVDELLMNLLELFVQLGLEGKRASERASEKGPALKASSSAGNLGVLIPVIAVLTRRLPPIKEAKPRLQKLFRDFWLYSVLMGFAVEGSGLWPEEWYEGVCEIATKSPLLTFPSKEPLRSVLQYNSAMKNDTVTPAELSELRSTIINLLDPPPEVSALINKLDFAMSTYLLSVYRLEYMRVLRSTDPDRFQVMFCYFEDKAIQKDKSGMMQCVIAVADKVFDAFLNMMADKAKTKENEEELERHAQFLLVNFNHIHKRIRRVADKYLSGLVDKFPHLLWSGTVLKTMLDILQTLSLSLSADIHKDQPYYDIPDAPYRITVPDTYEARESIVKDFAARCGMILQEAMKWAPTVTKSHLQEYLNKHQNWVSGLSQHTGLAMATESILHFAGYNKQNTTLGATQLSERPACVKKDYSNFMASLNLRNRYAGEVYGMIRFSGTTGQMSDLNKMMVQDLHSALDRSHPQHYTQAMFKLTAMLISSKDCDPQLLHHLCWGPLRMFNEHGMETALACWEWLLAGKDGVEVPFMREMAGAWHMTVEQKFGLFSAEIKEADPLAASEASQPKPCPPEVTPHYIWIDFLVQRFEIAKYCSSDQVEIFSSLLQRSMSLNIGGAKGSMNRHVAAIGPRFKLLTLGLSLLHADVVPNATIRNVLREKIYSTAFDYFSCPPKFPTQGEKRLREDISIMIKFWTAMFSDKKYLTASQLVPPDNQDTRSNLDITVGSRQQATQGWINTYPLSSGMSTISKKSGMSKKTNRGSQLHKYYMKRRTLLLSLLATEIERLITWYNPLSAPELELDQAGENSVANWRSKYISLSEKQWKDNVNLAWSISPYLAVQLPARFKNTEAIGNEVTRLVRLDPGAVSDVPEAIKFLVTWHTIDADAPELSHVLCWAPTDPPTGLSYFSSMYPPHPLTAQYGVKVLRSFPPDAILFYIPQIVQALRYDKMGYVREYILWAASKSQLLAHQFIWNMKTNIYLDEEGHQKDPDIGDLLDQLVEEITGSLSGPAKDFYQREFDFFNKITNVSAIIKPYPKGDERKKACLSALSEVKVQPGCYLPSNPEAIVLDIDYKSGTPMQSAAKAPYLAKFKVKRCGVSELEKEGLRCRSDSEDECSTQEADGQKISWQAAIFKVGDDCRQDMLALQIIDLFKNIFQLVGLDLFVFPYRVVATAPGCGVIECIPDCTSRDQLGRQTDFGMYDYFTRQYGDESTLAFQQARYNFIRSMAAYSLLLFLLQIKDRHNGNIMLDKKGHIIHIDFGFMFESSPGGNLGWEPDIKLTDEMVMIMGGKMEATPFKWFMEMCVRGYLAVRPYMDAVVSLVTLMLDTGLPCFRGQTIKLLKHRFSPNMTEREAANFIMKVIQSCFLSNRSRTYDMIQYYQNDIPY
# UniProt P53350, whole entry: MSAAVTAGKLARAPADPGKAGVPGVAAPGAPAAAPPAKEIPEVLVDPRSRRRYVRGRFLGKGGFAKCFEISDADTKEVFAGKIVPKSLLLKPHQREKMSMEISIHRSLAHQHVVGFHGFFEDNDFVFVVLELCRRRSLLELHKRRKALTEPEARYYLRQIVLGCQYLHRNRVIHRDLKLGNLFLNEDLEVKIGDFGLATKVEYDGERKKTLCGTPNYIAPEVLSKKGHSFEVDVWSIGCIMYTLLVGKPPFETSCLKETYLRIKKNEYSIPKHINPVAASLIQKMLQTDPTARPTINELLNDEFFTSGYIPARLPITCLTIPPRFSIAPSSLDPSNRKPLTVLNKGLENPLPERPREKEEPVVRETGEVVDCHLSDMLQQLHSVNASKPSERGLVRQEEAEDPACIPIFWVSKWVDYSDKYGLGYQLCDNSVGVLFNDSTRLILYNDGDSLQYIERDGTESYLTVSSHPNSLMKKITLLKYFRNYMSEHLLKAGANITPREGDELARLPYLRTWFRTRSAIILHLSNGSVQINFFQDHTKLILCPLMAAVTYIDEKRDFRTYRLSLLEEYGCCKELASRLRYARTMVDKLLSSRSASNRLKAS
# UniProt Q13131: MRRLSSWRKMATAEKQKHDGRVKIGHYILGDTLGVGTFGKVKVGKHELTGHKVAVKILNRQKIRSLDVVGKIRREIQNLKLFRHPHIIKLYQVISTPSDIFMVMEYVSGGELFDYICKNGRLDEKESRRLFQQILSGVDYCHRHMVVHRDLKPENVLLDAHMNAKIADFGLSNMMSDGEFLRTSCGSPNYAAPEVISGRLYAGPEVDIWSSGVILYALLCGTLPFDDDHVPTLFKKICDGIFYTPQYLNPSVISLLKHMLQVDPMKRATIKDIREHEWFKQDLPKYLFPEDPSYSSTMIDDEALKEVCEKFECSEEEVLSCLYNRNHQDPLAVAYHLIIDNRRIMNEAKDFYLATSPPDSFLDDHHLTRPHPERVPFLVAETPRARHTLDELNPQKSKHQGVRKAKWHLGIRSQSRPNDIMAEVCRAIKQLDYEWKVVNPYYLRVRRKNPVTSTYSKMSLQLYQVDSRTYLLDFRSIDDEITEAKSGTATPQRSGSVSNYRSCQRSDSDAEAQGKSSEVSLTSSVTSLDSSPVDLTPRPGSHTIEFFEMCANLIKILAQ
# UniProt Q05397, whole entry, looked up: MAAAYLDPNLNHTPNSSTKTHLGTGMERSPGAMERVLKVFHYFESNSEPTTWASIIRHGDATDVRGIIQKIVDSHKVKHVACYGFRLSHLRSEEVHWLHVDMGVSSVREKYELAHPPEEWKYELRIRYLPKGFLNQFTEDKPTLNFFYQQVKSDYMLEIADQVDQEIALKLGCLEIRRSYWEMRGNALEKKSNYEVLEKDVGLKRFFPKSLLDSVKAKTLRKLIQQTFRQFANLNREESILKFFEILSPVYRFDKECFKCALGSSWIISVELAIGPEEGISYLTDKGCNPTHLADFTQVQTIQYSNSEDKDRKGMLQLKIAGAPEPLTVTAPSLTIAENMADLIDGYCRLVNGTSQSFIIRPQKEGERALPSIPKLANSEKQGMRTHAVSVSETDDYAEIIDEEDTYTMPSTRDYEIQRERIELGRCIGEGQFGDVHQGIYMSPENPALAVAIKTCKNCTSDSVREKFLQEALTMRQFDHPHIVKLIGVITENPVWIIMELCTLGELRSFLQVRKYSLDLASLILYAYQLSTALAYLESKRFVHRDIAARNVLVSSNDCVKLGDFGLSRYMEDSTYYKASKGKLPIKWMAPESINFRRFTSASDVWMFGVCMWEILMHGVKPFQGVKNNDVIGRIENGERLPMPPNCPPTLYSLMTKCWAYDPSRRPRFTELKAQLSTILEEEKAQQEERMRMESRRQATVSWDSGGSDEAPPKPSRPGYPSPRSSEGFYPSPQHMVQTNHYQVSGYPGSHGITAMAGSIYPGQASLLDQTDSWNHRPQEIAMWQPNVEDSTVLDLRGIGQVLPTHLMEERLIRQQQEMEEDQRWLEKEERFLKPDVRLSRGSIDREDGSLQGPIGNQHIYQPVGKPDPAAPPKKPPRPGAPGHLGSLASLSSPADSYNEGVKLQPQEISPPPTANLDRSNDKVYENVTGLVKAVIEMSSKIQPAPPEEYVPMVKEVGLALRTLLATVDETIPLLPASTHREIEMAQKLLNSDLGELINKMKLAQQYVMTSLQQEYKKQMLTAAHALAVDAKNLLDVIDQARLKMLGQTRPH
# UniProt Q14289, whole entry, looked up: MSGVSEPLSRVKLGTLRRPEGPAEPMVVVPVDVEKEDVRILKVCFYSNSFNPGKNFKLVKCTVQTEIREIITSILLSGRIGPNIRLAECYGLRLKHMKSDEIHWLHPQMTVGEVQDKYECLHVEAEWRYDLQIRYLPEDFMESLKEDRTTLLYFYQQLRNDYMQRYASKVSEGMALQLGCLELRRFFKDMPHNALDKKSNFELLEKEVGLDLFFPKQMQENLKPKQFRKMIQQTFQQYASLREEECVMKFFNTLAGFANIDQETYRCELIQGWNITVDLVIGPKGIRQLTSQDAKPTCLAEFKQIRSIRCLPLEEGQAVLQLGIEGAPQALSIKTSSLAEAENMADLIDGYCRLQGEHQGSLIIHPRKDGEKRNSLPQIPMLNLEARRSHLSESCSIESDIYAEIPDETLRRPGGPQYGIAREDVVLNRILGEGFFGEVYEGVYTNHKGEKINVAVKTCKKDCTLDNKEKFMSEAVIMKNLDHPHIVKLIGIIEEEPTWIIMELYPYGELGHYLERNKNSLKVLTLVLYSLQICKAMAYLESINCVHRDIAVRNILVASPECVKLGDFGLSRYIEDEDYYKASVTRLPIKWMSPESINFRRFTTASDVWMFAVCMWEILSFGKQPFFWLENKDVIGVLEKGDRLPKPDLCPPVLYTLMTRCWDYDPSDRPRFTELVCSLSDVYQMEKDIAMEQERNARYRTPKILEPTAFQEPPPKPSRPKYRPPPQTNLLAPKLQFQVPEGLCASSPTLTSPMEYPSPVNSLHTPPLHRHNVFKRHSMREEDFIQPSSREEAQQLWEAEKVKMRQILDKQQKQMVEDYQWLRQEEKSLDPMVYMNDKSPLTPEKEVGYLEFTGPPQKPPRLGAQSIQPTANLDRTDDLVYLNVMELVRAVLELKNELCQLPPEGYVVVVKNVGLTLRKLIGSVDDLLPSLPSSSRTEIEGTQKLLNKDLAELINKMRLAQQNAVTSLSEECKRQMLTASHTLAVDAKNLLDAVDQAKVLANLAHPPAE
# Where a name gives a salt, the structure may show the parent alone. The list shows a part of the results. The calls rarely recur for the same compound in another form.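 In K562 cells expressing nanoluciferase-fused kinases, luminescence was recorded at 4 h intervals between 2 and 18 h, normalized as percent of control with DMSO at 100% and a positive control at 0%. A significant (2 sigma) signal drop marks a time point as decreased. The authors' rule for a hit is not shown and takes in more than the number of time points.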
# Assays:
# Test in all cases: kinase-Nluc reporter destabilization hit call (1 = scored as downregulated) (binary); higher = compound decreases kinase abundance
# Conditions in all cases: K562; 2-18 h
# [1] = target: PDPK1 (UniProt O15530)
# [2] = target: PIK4CA (UniProt P42356)
# [3] = target: PIK4CB (UniProt Q9UBF8)
# [4] = target: PLK1 (UniProt P53350)
# [5] = target: PRKAA1 (UniProt Q13131)
# [6] = target: PRKCA (UniProt P17252)
# [7] = target: PTK2 (UniProt Q05397)
# [8] = target: PTK2B (UniProt Q14289)
# [9] = target: RAF1 (UniProt P04049)
# [10] = target: RAF1_S257L (clone: RAF1_mut) (UniProt P04049)
Compound,kinase-Nluc reporter destabilization hit call [1],kinase-Nluc reporter destabilization hit call [2],kinase-Nluc reporter destabilization hit call [3],kinase-Nluc reporter destabilization hit call [4],kinase-Nluc reporter destabilization hit call [5],kinase-Nluc reporter destabilization hit call [6],kinase-Nluc reporter destabilization hit call [7],kinase-Nluc reporter destabilization hit call [8],kinase-Nluc reporter destabilization hit call [9],kinase-Nluc reporter destabilization hit call [10]
Cn1cc(-c2ccc3nnc(C(F)(F)c4ccc5ncccc5c4)n3n2)cn1 (10 µM),inactive: 0,inactive: 0,inactive: 0,inactive: 0,inactive: 0,inactive: 0,inactive: 0,inactive: 0,inactive: 0,inactive: 0
Cn1cc(-c2ccc(F)c(C(F)(F)F)c2)nc1C1CCN(c2ncnc3[nH]ncc23)CC1 (10 µM),inactive: 0,inactive: 0,inactive: 0,inactive: 0,inactive: 0,inactive: 0,inactive: 0,inactive: 0,inactive: 0,inactive: 0
O=C1NC(=O)C(c2cnc3ccccn23)=C1c1cn2c3c(cc(F)cc13)CN(C(=O)N1CCCCC1)CC2 (2.5 µM),inactive: 0,inactive: 0,inactive: 0,inactive: 0,inactive: 0,inactive: 0,inactive: 0,inactive: 0,inactive: 0,inactive: 0
CC1=C(CC(=O)O)c2cc(F)ccc2/C1=C\c1ccc(C(C)C)cc1 (10 µM),inactive: 0,inactive: 0,inactive: 0,inactive: 0,inactive: 0,inactive: 0,inactive: 0,inactive: 0,inactive: 0,inactive: 0
CCCCNC(=N)NC(=N)N [Buformin (hydrochloride)] (2.5 µM),inactive: 0,inactive: 0,inactive: 0,inactive: 0,inactive: 0,inactive: 0,inactive: 0,inactive: 0,inactive: 0,inactive: 0
C=CS(=O)(=O)c1ccc(Nc2nc(OCC3CCCCC3)c3[nH]cnc3n2)cc1 (2.5 µM),inactive: 0,inactive: 0,inactive: 0,inactive: 0,inactive: 0,inactive: 0,inactive: 0,inactive: 0,inactive: 0,inactive: 0
Nc1cccc(S(=O)(=O)N2CCCN(S(=O)(=O)c3ccc4c(c3)OCCO4)CC2)c1 (10 µM),inactive: 0,inactive: 0,inactive: 0,inactive: 0,inactive: 0,inactive: 0,inactive: 0,inactive: 0,inactive: 0,inactive: 0
COc1cc(N2CCC(N(C)C)CC2)ccc1Nc1ncc(Cl)c(Nc2ccccc2P(C)(C)=O)n1 (2.5 µM),inactive: 0,inactive: 0,inactive: 0,inactive: 0,inactive: 0,inactive: 0,inactive: 0,inactive: 0,inactive: 0,inactive: 0
CC(C)N(C)c1nc2cc(C(=O)O)ccc2nc1-c1ccc(F)cc1 (10 µM),inactive: 0,inactive: 0,inactive: 0,inactive: 0,inactive: 0,inactive: 0,inactive: 0,inactive: 0,inactive: 0,inactive: 0
CC(=O)NCCc1c[nH]c2ccc(O)cc12 [N-Acetyl-5-hydroxytryptamine] (10 µM),inactive: 0,inactive: 0,inactive: 0,inactive: 0,inactive: 0,inactive: 0,inactive: 0,inactive: 0,inactive: 0,inactive: 0
CCN1C(=O)CNc2ncc(-c3ccc(-c4nc[nH]n4)nc3C)nc21 [CC-115 (hydrochloride)] (2.5 µM),inactive: 0,inactive: 0,inactive: 0,inactive: 0,inactive: 0,inactive: 0,inactive: 0,inactive: 0,inactive: 0,inactive: 0
c1cc(-c2cnn3cc(-c4ccc(N5CCNCC5)cc4)cnc23)c2cccnc2c1 (2.5 µM),inactive: 0,inactive: 0,inactive: 0,inactive: 0,inactive: 0,inactive: 0,inactive: 0,inactive: 0,inactive: 0,inactive: 0
Nc1n[nH]c2cc(-c3ccc(=O)n(Cc4cccc(Cl)c4)c3)ccc12 (10 µM),inactive: 0,inactive: 0,inactive: 0,inactive: 0,inactive: 0,inactive: 0,inactive: 0,inactive: 0,inactive: 0,inactive: 0
CCOc1ccccc1C=C1C(=O)Nc2ccccc21 (10 µM),inactive: 0,inactive: 0,inactive: 0,inactive: 0,inactive: 0,inactive: 0,inactive: 0,inactive: 0,inactive: 0,inactive: 0
Fc1c(Br)cccc1Nc1ncnc2cc3c(cc12)OCCO3 (2.5 µM),inactive: 0,inactive: 0,inactive: 0,inactive: 0,inactive: 0,inactive: 0,inactive: 0,inactive: 0,inactive: 0,inactive: 0
C=CC(=O)Nc1cccc(Oc2nc(Nc3ccc(N4CCN(C)CC4)cc3)nc3ccoc23)c1 [Poseltinib] (10 µM),inactive: 0,inactive: 0,inactive: 0,inactive: 0,inactive: 0,inactive: 0,inactive: 0,inactive: 0,inactive: 0,inactive: 0
O=C1NCCCc2c1oc1ccc(O)cc21 (10 µM),inactive: 0,inactive: 0,inactive: 0,inactive: 0,inactive: 0,inactive: 0,inactive: 0,inactive: 0,inactive: 0,inactive: 0

# For convenience, some entries already given.
Compound,kinase-Nluc reporter destabilization hit call [1],kinase-Nluc reporter destabilization hit call [2],kinase-Nluc reporter destabilization hit call [3],kinase-Nluc reporter destabilization hit call [4],kinase-Nluc reporter destabilization hit call [5],kinase-Nluc reporter destabilization hit call [6],kinase-Nluc reporter destabilization hit call [7],kinase-Nluc reporter destabilization hit call [8],kinase-Nluc reporter destabilization hit call [9],kinase-Nluc reporter destabilization hit call [10]
CC(=O)NCCc1c[nH]c2ccc(O)cc12 [N-Acetyl-5-hydroxytryptamine] (10 µM),inactive: 0,inactive: 0,inactive: 0,inactive: 0,inactive: 0,inactive: 0,inactive: 0,inactive: 0,inactive: 0,inactive: 0
CCN1C(=O)CNc2ncc(-c3ccc(-c4nc[nH]n4)nc3C)nc21 [CC-115 (hydrochloride)] (2.5 µM),inactive: 0,inactive: 0,inactive: 0,inactive: 0,inactive: 0,inactive: 0,inactive: 0,inactive: 0,inactive: 0,inactive: 0

# Additional entries

Compound,kinase-Nluc reporter destabilization hit call [1],kinase-Nluc reporter destabilization hit call [2],kinase-Nluc reporter destabilization hit call [3],kinase-Nluc reporter destabilization hit call [4],kinase-Nluc reporter destabilization hit call [5],kinase-Nluc reporter destabilization hit call [6],kinase-Nluc reporter destabilization hit call [7],kinase-Nluc reporter destabilization hit call [8],kinase-Nluc reporter destabilization hit call [9],kinase-Nluc reporter destabilization hit call [10]
COc1c(C)c(C(=O)c2ccc(N)c(C(=O)O)c2)n2ccccc12 (10 µM),inactive: 0,inactive: 0,inactive: 0,inactive: 0,inactive: 0,inactive: 0,inactive: 0,inactive: 0,inactive: 0,inactive: 0
COc1ccc2c(Oc3ccc(NC(=O)c4c(C)n(CC(C)(C)O)n(-c5ccccc5)c4=O)cc3F)ccnc2c1 (2.5 µM),inactive: 0,inactive: 0,inactive: 0,inactive: 0,inactive: 0,inactive: 0,inactive: 0,inactive: 0,inactive: 0,inactive: 0
NCCCCCCNS(=O)(=O)c1cccc2c(Cl)cccc12 [W-7 (hydrochloride)] (10 µM),inactive: 0,inactive: 0,inactive: 0,inactive: 0,inactive: 0,inactive: 0,inactive: 0,inactive: 0,inactive: 0,inactive: 0
CCCCCCCC/C=C\CCCCCCCC(=O)NCC(=O)O [N-Oleoyl glycine] (10 µM),inactive: 0,inactive: 0,inactive: 0,active: 1,inactive: 0,inactive: 0,inactive: 0,inactive: 0,inactive: 0,inactive: 0
CCOc1c([C@H](C)n2nc(C)c3c(N)ncnc32)cc(Cl)c(F)c1[C@@H]1CNC(=O)C1 [Parsaclisib (hydrochloride)] (10 µM),inactive: 0,inactive: 0,inactive: 0,inactive: 0,inactive: 0,inactive: 0,inactive: 0,inactive: 0,inactive: 0,inactive: 0
COc1cc(-c2cc(-c3cc(OC)c(OC)c(OC)c3)cc(C(F)P(=O)(OCOC(=O)C(C)(C)C)OCOC(=O)C(C)(C)C)c2)cc(OC)c1OC (stereo not given) [Stafia-1-dipivaloyloxymethyl ester] (2.5 µM),inactive: 0,inactive: 0,inactive: 0,inactive: 0,inactive: 0,inactive: 0,inactive: 0,inactive: 0,inactive: 0,inactive: 0
O=c1nc(N2CCOCC2)oc2c(-c3cccc4c3sc3ccccc34)cccc12 (10 µM),inactive: 0,inactive: 0,inactive: 0,inactive: 0,inactive: 0,inactive: 0,inactive: 0,inactive: 0,inactive: 0,inactive: 0
Oc1ccccc1C(=S)N1CCCC1 (10 µM),inactive: 0,inactive: 0,inactive: 0,inactive: 0,inactive: 0,inactive: 0,inactive: 0,inactive: 0,inactive: 0,inactive: 0
CC[C@@H]1[C@H](F)C(=O)N[C@@H]1COc1nccc2cc(C(N)=O)c(OC)cc12 (10 µM),inactive: 0,inactive: 0,inactive: 0,inactive: 0,inactive: 0,inactive: 0,inactive: 0,inactive: 0,inactive: 0,inactive: 0
O=C(Nc1cccc(-c2nncn2C2CC2)c1)c1cc(-n2cnc(C3CC3)c2)ccn1 (10 µM),inactive: 0,inactive: 0,inactive: 0,inactive: 0,inactive: 0,inactive: 0,inactive: 0,inactive: 0,inactive: 0,inactive: 0
COc1c(O)cc2oc3cc(O)c(CC=C(C)C)c(O)c3c(=O)c2c1CCC(C)(C)O [Garcinone D] (2.5 µM),inactive: 0,inactive: 0,inactive: 0,inactive: 0,inactive: 0,inactive: 0,inactive: 0,inactive: 0,inactive: 0,inactive: 0
O=C(O)c1cc(O)c2c(c1)[C@@H]([C@H]1c3cc(C(=O)O)cc(O)c3C(=O)c3c(O[C@@H]4O[C@H](CO)[C@@H](O)[C@H](O)[C@H]4O)cccc31)c1cccc(O[C@@H]3O[C@H](CO)[C@@H](O)[C@H](O)[C@H]3O)c1C2=O [Sennoside B] (2.5 µM),inactive: 0,inactive: 0,inactive: 0,inactive: 0,inactive: 0,inactive: 0,inactive: 0,inactive: 0,inactive: 0,inactive: 0
COc1ccc(CN2C3CC2CN(c2ccc(-c4cc(OCC(C)(C)O)cn5ncc(C#N)c45)cn2)C3)cn1 [Selpercatinib] (10 µM),inactive: 0,inactive: 0,inactive: 0,inactive: 0,inactive: 0,inactive: 0,inactive: 0,inactive: 0,inactive: 0,inactive: 0
COC(=O)[C@@]1(C)CC[C@]2(C(=O)O)CC[C@]3(C)C(=CC[C@@H]4[C@@]5(C)C[C@H](O)[C@H](O[C@@H]6OC[C@@H](O[C@@H]7O[C@H](CO)[C@@H](O)[C@H](O)[C@H]7O)[C@H](O)[C@H]6O)[C@@](C)(CO)[C@@H]5CC[C@]43C)[C@@H]2C1 [Esculentoside A] (10 µM),inactive: 0,inactive: 0,inactive: 0,inactive: 0,inactive: 0,inactive: 0,inactive: 0,inactive: 0,inactive: 0,inactive: 0
O=[N+]([O-])c1ccc(Sc2cccc[n+]2[O-])c2nonc12 (2.5 µM),inactive: 0,inactive: 0,inactive: 0,inactive: 0,inactive: 0,inactive: 0,inactive: 0,inactive: 0,inactive: 0,inactive: 0
CCC(C)(C)C(=O)N(O)Cc1ccccc1 (10 µM),inactive: 0,inactive: 0,inactive: 0,inactive: 0,inactive: 0,inactive: 0,inactive: 0,inactive: 0,inactive: 0,inactive: 0
O=C(NOCCO)c1ccc2cncn2c1Nc1ccc(I)cc1F (10 µM),inactive: 0,inactive: 0,inactive: 0,inactive: 0,inactive: 0,inactive: 0,inactive: 0,inactive: 0,inactive: 0,inactive: 0
